Laboratory results: patent publication US20240197896A1, “SYNTHETIC PEPTIDE SHUTTLE AGENT BIOCONJUGATES FOR INTRACELLULAR CARGO DELIVERY” (FELDAN BIO INC., priority 2021, published 2024)
At least one peptide structure holds a part that was inferred or is arguable (an end, a ring closure or a residue). Ends that are not written are not given here.

What was measured:
HeLa cells [1] = experiment: In vitro transduction of DRI-NLS^647 cargo in HeLa cells (flow cytometry and fluorescence microscopy); type: cell-based, Human; conditions: used at 10 μM; cargo 10 μM
Method: HeLa cells were plated (20 000 cells/well) in a 96 well-dish one day prior to transduction. Each delivery mix comprising a PEGylated shuttle agent (monomer or multimer) or a non-PEGylated shuttle agent at the indicated concentration(s) and 10 μM of a fluorescent cargo (e.g., GFP-NLS or DRI-NLS^647) was prepared in 50 μL with RPMI 1640 media completed with 10% human serum. Cells were washed once with PBS 1×, then incubated for 5 minutes with the prepared shuttle/cargo mix, PEGylated shuttle agent/cargo mix, and/or with the cargo alone as a negative control. After the incubation, 100 μL of DMEM containing 10% FBS was added to the mix and removed. […] Cells were then analyzed after a 1-hour incubation by fluorescence microscopy (Revolve, Echo: San Diego, CA, USA) and flow cytometry (Cytoflex™, Beckman Coulter: Indianapolis, IN, USA).
The signal intensity emitted by the fluorescent cargo and the percentage of cargo delivered cells was quantified by flow cytometry. Untreated cells were used to establish a baseline to quantify the increase in fluorescence that results from a successful internalization of the cargo in the presence of the shuttle agent in the treated cells. The percentage of cells with a fluorescence signal greater than the maximum fluorescence of untreated cells, “mean %” or “Pos cells (%)”, was used to identify positive fluorescent cells for determining transduction efficiency. […]

HeLa cells [2] = experiment: In vitro transduction of GFP-NLS cargo in HeLa cells (flow cytometry and fluorescence microscopy); type: cell-based, Human
Method: HeLa cells were plated (20 000 cells/well) in a 96 well-dish one day prior to transduction. Each delivery mix comprising a PEGylated shuttle agent (monomer or multimer) or a non-PEGylated shuttle agent at the indicated concentration(s) and 10 μM of a fluorescent cargo (e.g., GFP-NLS or DRI-NLS^647) was prepared in 50 μL with RPMI 1640 media completed with 10% human serum. Cells were washed once with PBS 1×, then incubated for 5 minutes with the prepared shuttle/cargo mix, PEGylated shuttle agent/cargo mix, and/or with the cargo alone as a negative control. After the incubation, 100 μL of DMEM containing 10% FBS was added to the mix and removed. Cells were washed once with PBS 1× and incubated in DMEM containing 10% FBS. Cells were then analyzed after a 1-hour incubation by fluorescence microscopy (Revolve, Echo: San Diego, CA, USA) and flow cytometry (Cytoflex™, Beckman Coulter: Indianapolis, IN, USA).
The signal intensity emitted by the fluorescent cargo and the percentage of cargo delivered cells was quantified by flow cytometry. Untreated cells were used to establish a baseline to quantify the increase in fluorescence that results from a successful internalization of the cargo in the presence of the shuttle agent in the treated cells. The percentage of cells with a fluorescence signal greater than the maximum fluorescence of untreated cells, “mean %” or “Pos cells (%)”, was used to identify positive fluorescent cells for determining transduction efficiency. The mean fluorescence intensity (Mean-FITC/APC) is the average of all fluorescence intensities of each cell with a fluorescent signal after delivery of fluorescent cargos. “Delivery scores” were calculated to provide a further indication of the total amount of cargo that was delivered per cell amongst all cargo-positive cells and was calculated by multiplying the mean fluorescence intensity (of at least duplicate samples) measured for the viable cargo-positive cells, by the mean percentage of viable cargo-positive cells, divided by 100,000. […]

HeLa cells [3] = conditions: cultured HeLa cells; cited from earlier work

KWKLARAFARAIKKLGGSGGGSYARALRRQARTG [FSD10]
nuclear cargo transduction of independent DRI-NLS^647 by microscopy (HeLa cells [1]): robust nuclear cargo transduction | Delivery-Viability Score (peak) (HeLa cells [2]; 10 μM, GFP-NLS 10 μM, Mean Delivery Score x Mean Cell Viability x 10): 73.85 | range spanned by the concentration window of cargo transduction activity (HeLa cells [2]; GFP-NLS 10 μM, 0 to 160 μM tested): about 20 μM | nuclear cargo transduction of GFP-NLS by microscopy (HeLa cells [2]; used at 10 μM, 10% human serum): robust nuclear cargo transduction | GFP transduction efficiency (HeLa cells [3]): over 70%
